Reference: publication PMC6168860, “Dual Role of a Viral Polymerase in Viral Genome Replication and Particle Self-Assembly” (mBio, 2018)
No constants are given. Whether binding was seen depends on the method and setting. A result given as binding can be weak or reduced; the word gives no strength.

Target: T1, Pseudomonas phage Φ6 major capsid protein P1 (Pseudomonas phage Φ6) (UniProt P11126)
T1 sequence: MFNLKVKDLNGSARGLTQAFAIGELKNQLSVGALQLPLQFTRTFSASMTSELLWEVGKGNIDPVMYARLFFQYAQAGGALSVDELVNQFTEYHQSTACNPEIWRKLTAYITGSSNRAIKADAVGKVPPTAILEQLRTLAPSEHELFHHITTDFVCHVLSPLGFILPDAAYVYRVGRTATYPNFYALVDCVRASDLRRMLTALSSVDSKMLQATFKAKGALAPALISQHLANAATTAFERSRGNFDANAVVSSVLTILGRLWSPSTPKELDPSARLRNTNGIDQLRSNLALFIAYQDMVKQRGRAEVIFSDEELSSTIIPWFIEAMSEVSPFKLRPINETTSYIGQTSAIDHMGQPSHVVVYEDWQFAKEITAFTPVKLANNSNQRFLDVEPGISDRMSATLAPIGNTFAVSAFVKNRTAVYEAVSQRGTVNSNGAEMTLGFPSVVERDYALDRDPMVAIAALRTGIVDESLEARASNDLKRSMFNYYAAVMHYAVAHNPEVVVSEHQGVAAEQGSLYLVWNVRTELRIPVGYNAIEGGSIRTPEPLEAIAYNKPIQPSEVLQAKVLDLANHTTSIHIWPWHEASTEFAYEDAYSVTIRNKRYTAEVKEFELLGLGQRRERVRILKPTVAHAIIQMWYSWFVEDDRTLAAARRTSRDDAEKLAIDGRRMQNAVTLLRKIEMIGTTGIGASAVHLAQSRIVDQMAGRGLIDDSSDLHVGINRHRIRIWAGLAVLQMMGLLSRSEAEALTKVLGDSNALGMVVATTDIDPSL
Assay: co-sedimentation; in vitro self-assembly of complete PCs from purified P1, P4, P7 and P2 at 1×P2; rate-zonal centrifugation in 10% to 30% sucrose, mean P2 copies per particle from SDS-PAGE; both purified

Substance: Pseudomonas phage Φ6 minor protein P7
- binding: binds
